Reference: the supplement of paper PMC4604168 (melanoma cell lines)
The other results are listed elsewhere or left out. Single values are uncertain, as repeats are few or missing.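 The apoptosis fraction was the count of cleaved-PARP antibody-stained nuclei relative to all DNA-stained nuclei, imaged in 1,536-well plates. Screening doses were set so most cells survived, and baseline and induced cleaved-PARP levels vary greatly across cell lines.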

How the values were obtained:
Assay in all cases: cleaved PARP positive nuclei fraction relative to DMSO control; melanoma cells; higher = more apoptosis
Details in all cases: library dose: low library concentration; 72 h
[1] = test system: A101D
[2] = test system: A2058
[3] = test system: A375
[4] = test system: C32
[5] = test system: CBRC008 (line from a melanoma biopsy)
[6] = test system: CBRC013 (line from a melanoma biopsy)
[7] = test system: CBRC014 (line from a melanoma biopsy)
[8] = test system: CBRC016 (line from a melanoma biopsy)
[9] = test system: CBRC017 (line from a melanoma biopsy)
[10] = test system: 501Mel

Row | Compound | cleaved PARP positive nuclei fraction [1] [%] | cleaved PARP positive nuclei fraction [2] [%] | cleaved PARP positive nuclei fraction [3] [%] | cleaved PARP positive nuclei fraction [4] [%] | cleaved PARP positive nuclei fraction [5] [%] | cleaved PARP positive nuclei fraction [6] [%] | cleaved PARP positive nuclei fraction [7] [%] | cleaved PARP positive nuclei fraction [8] [%] | cleaved PARP positive nuclei fraction [9] [%] | cleaved PARP positive nuclei fraction [10] [%]
1 | N.N.[Cl][Pt][Cl] [cisplatin] + C=CCn1c(=O)c2cnc(Nc3ccc(N4CCN(C)CC4)cc3)nc2n1-c1cccc(C(C)(C)O)n1 [MK1775] (first compound 1.6 µM, partner dose 0.02 µM) | 266 | 83.4 | 85.8 | 176 | 222 | 68.2 | 116 | 90.9 | 90.6 | –
2 | C[C@]12O[C@H](C[C@]1(O)CO)n1c3ccccc3c3c4c(c5c6ccccc6n2c5c31)CNC4=O [Lestaurtinib] + C/C(O)=C(\C#N)C(=O)Nc1cc(Br)ccc1Br [LFM-A13] (first compound 0.004 µM, partner dose 2 µM) | 39.9 | 220 | – | 38.3 | 80.4 | – | 96.2 | 42.5 | 274 | 24.7
3 | CC1(C)CCC(c2ccc(Cl)cc2)=C(CN2CCN(c3ccc(C(=O)NS(=O)(=O)c4ccc(N[C@H](CCN5CCOCC5)CSc5ccccc5)c(S(=O)(=O)C(F)(F)F)c4)cc3)CC2)C1 + Cc1cc(SCc2sc(-c3ccc(C(F)(F)F)c(F)c3)nc2C)ccc1OCC(=O)O [GW0742] (first compound 0.4 µM, partner dose 2 µM) | 50.3 | 57.4 | – | 299 | 857 | – | 713 | 549 | 344 | 98.3
4 | COc1cc([C@@H]2c3cc4c(cc3[C@@H](O[C@@H]3O[C@@H]5CO[C@@H](C)O[C@H]5[C@H](O)[C@H]3O)[C@H]3COC(=O)[C@H]23)OCO4)cc(OC)c1O [etoposide] + O=C(Oc1ccc([N+](=O)[O-])cc1)N1CCC(C(O)(c2ccc3c(c2)OCO3)c2ccc3c(c2)OCO3)CC1 [JZL184] (first compound 0.02 µM, partner dose 1 µM) | 20.2 | 104 | – | 66.1 | 241 | – | 99.6 | 44.8 | 162 | 69.1
5 | Cn1cc(C2=C(c3cn(C4CCN(Cc5ccccn5)CC4)c4ccccc34)C(=O)NC2=O)c2ccccc21 [Enzastaurin] + O=C(Oc1ccc([N+](=O)[O-])cc1)N1CCC(C(O)(c2ccc3c(c2)OCO3)c2ccc3c(c2)OCO3)CC1 [JZL184] (first compound 0.8 µM, partner dose 1 µM) | 62 | 71.6 | – | 83.1 | 126 | – | 128 | 38.2 | 126 | 67.1
6 | CNC(=O)c1cc(Oc2ccc(NC(=O)Nc3ccc(Cl)c(C(F)(F)F)c3)cc2)ccn1 [sorafenib] + Cc1cc(SCc2sc(-c3ccc(C(F)(F)F)c(F)c3)nc2C)ccc1OCC(=O)O [GW0742] (first compound 0.4 µM, partner dose 2 µM) | 29.6 | 49.9 | – | 150 | 55.1 | – | 181 | 71.6 | 98.1 | 64.6
7 | COc1ccc(C2=N[C@@H](c3ccc(Cl)cc3)[C@@H](c3ccc(Cl)cc3)N2C(=O)N2CCNC(=O)C2)c(OC(C)C)c1 [Nutlin-3] + O=C(Oc1ccc([N+](=O)[O-])cc1)N1CCC(C(O)(c2ccc3c(c2)OCO3)c2ccc3c(c2)OCO3)CC1 [JZL184] (first compound 0.1 µM, partner dose 1 µM) | 47.3 | 106 | – | 47.6 | 91.5 | – | 99.3 | 29.4 | 111 | 150
8 | C[C@]12O[C@H](C[C@]1(O)CO)n1c3ccccc3c3c4c(c5c6ccccc6n2c5c31)CNC4=O [Lestaurtinib] + O=c1cc(-c2cccc3c2Sc2ccccc2S3)oc(N2CCOCC2)c1 [KU55933] (first compound 0.004 µM, partner dose 1 µM) | 19.5 | 69.3 | – | 303 | 58.9 | – | 97.7 | 34.5 | 87.5 | 79
9 | C=C(c1ccc(C(=O)O)cc1)c1cc2c(cc1C)C(C)(C)CCC2(C)C [Bexarotene] + C/C(O)=C(\C#N)C(=O)Nc1cc(Br)ccc1Br [LFM-A13] (first compound 2 µM, partner dose 2 µM) | 24.7 | 75.6 | – | 82.5 | 524 | – | 131 | 120 | 289 | 65.7
10 | CS(=O)(=O)c1ccc(C(=O)Nc2ccc(Cl)c(-c3ccccn3)c2)c(Cl)c1 [vismodegib] + Cc1cc(SCc2sc(-c3ccc(C(F)(F)F)c(F)c3)nc2C)ccc1OCC(=O)O [GW0742] (first compound 1 µM, partner dose 2 µM) | 14 | 77.9 | – | 45.6 | 113 | – | 43.7 | 132 | 105 | 73.8
11 | C[As](C)SC[C@H](NC(=O)CC[C@H](N)C(=O)O)C(=O)NCC(=O)O [Darinaparsin] + Oc1cc(-c2nc(-c3ccccc3)[nH]c2-c2ccncc2)ccc1Cl [L779450] (first compound 0.4 µM, partner dose 0.2 µM) | 59.1 | 92.8 | 141 | 95.7 | – | 131 | 83.5 | 93.9 | 82.4 | –
12 | Cn1cc(C2=C(c3cn(C4CCN(Cc5ccccn5)CC4)c4ccccc34)C(=O)NC2=O)c2ccccc21 [Enzastaurin] + NC1(c2ccc(-c3nc4ccn5c(=O)[nH]nc5c4cc3-c3ccccc3)cc2)CCC1 [MK2206] (first compound 0.8 µM, partner dose 0.4 µM) | 106 | 119 | 57.4 | 85.9 | 191 | – | 116 | 168 | 303 | –
13 | Clc1ccc(Nc2nnc(Cc3ccncc3)c3ccccc23)cc1 [vatalanib] + Cc1cc(SCc2sc(-c3ccc(C(F)(F)F)c(F)c3)nc2C)ccc1OCC(=O)O [GW0742] (first compound 2 µM, partner dose 2 µM) | 109 | 90.9 | – | 169 | 39.8 | – | 99.2 | 275 | 108 | –
14 | COc1ccc(COc2ccc(Cc3cnc(N)nc3N)cc2OC)cc1 + O=C(Oc1ccc([N+](=O)[O-])cc1)N1CCC(C(O)(c2ccc3c(c2)OCO3)c2ccc3c(c2)OCO3)CC1 [JZL184] (first compound 1 µM, partner dose 1 µM) | 145 | 81.1 | 328 | 129 | – | 832 | 90.1 | 74.6 | 75.8 | –
15 | C[C@@H]1CCN(C(=O)CC#N)C[C@@H]1N(C)c1ncnc2[nH]ccc12 + O=C(Oc1ccc([N+](=O)[O-])cc1)N1CCC(C(O)(c2ccc3c(c2)OCO3)c2ccc3c(c2)OCO3)CC1 [JZL184] (first compound 1 µM, partner dose 1 µM) | 110 | 56 | 44.7 | 162 | – | 201 | 102 | 54.4 | 84.3 | –
16 | C[As](C)SC[C@H](NC(=O)CC[C@H](N)C(=O)O)C(=O)NCC(=O)O [Darinaparsin] + COc1cc(N2CCC(N3CCN(C)CC3)CC2)ccc1Nc1ncc(Cl)c(Nc2ccccc2S(=O)(=O)C(C)C)n1 [NVP-TAE684] (first compound 0.4 µM, partner dose 0.08 µM) | 150 | 203 | 162 | 114 | – | 56.1 | 97.9 | 120 | 77.6 | –
17 | C=CCn1c(=O)c2cnc(Nc3ccc(N4CCN(C)CC4)cc3)nc2n1-c1cccc(C(C)(C)O)n1 + C/C(O)=C(\C#N)C(=O)Nc1cc(Br)ccc1Br [LFM-A13] (first compound 0.02 µM, partner dose 2 µM) | 66.3 | 70.7 | 264 | 96.4 | – | 48.7 | 119 | 65 | 96.9 | –
18 | C[C@]12O[C@H](C[C@]1(O)CO)n1c3ccccc3c3c4c(c5c6ccccc6n2c5c31)CNC4=O [Lestaurtinib] + Cn1nnc2c(C(N)=O)ncn2c1=O [temozolomide] (first compound 0.004 µM, partner dose 2 µM) | 161 | 111 | 67.6 | 68.1 | 120 | – | 197 | 80.5 | 70.3 | –
19 | Cn1c(=O)n(-c2ccc(C(C)(C)C#N)cc2)c2c3cc(-c4cnc5ccccc5c4)ccc3ncc21 + N.N.[Cl][Pt][Cl] [cisplatin] (first compound 0.004 µM, partner dose 1.6 µM) | 57 | 62.4 | 296 | 171 | 35.2 | – | 84.1 | 90.3 | 113 | –
20 | N.N.[Cl][Pt][Cl] [cisplatin] + O=C(Oc1ccc([N+](=O)[O-])cc1)N1CCC(C(O)(c2ccc3c(c2)OCO3)c2ccc3c(c2)OCO3)CC1 [JZL184] (first compound 1.6 µM, partner dose 1 µM) | 64.9 | 52.8 | – | 69.6 | 311 | – | 85 | 112 | 250 | –
21 | O=C(CCCCCCC(=O)Nc1ccccc1)NO [vorinostat] + O=C(Oc1ccc([N+](=O)[O-])cc1)N1CCC(C(O)(c2ccc3c(c2)OCO3)c2ccc3c(c2)OCO3)CC1 [JZL184] (first compound 0.08 µM, partner dose 1 µM) | 159 | 108 | 84.6 | 174 | – | 48.1 | 81.1 | 112 | 89.1 | –
22 | Cc1nc(Nc2ncc(C(=O)Nc3c(C)cccc3Cl)s2)cc(N2CCN(CCO)CC2)n1 [dasatanib] + O=C(Oc1ccc([N+](=O)[O-])cc1)N1CCC(C(O)(c2ccc3c(c2)OCO3)c2ccc3c(c2)OCO3)CC1 [JZL184] (first compound 0.004 µM, partner dose 1 µM) | 66 | 39.6 | 42.6 | 186 | – | 32.2 | 133 | 110 | 90.6 | –

Some of the entries so far, comma-delimited:
Row,Compound,cleaved PARP positive nuclei fraction [1] [%],cleaved PARP positive nuclei fraction [2] [%],cleaved PARP positive nuclei fraction [3] [%],cleaved PARP positive nuclei fraction [4] [%],cleaved PARP positive nuclei fraction [5] [%],cleaved PARP positive nuclei fraction [6] [%],cleaved PARP positive nuclei fraction [7] [%],cleaved PARP positive nuclei fraction [8] [%],cleaved PARP positive nuclei fraction [9] [%],cleaved PARP positive nuclei fraction [10] [%]
10,"CS(=O)(=O)c1ccc(C(=O)Nc2ccc(Cl)c(-c3ccccn3)c2)c(Cl)c1 [vismodegib] + Cc1cc(SCc2sc(-c3ccc(C(F)(F)F)c(F)c3)nc2C)ccc1OCC(=O)O [GW0742] (first compound 1 µM, partner dose 2 µM)",14,77.9,–,45.6,113,–,43.7,132,105,73.8
11,"C[As](C)SC[C@H](NC(=O)CC[C@H](N)C(=O)O)C(=O)NCC(=O)O [Darinaparsin] + Oc1cc(-c2nc(-c3ccccc3)[nH]c2-c2ccncc2)ccc1Cl [L779450] (first compound 0.4 µM, partner dose 0.2 µM)",59.1,92.8,141,95.7,–,131,83.5,93.9,82.4,–
